From paper PMC7066184

Target: HA-tagged Ub^KEKS (human)
Assay: affinity purification with mass spectrometry; HA antibody (12CA5) immunoprecipitation from triple-SILAC HeLa cells (control, HA-Ub, HA-Ub^KEKS), on-bead trypsin digestion; lysis in high-salt buffer or in denaturing buffer (2% SDS, 95 °C); which of the two gave the hits of Fig. 3 is not told

binding: binds
B1: RNF138 (enzyme, UniProt Q8WVD3 1-245)
chain: MAEDLSAATSYTEDDFYCPVCQEVLKTPVRTTACQHVFCRKCFLTAMRESGAHCPLCRGNVTRRERACPERALDLENIMRKFSGSCRCCAKQIKFYRMRHHYKSCKKYQDEYGVSSIIPNFQISQDSVGNSNRSETSTSDNTETYQENTSSSGHPTFKCPLCQESNFTRQRLLDHCNSNHLFQIVPVTCPICVSLPWGDPSQITRNFVSHLNQRHQFDYGEFVNLQLDEETQYQTAVEESFQVNI

These are yes or no findings as the source states them, for the method shown. In cells and extracts the contact can be indirect. These calls come from enrichment with a bait or labelling near it, and not all partners need be listed.
